Taken from: PubChem BioAssay AID504784 (Drosophila RNAi Screening Center, 2011)
In all, the deposit lists about 17,000 reagents; below is a random part of those with a known target gene and a result. 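Each column is one replicate's B-score; the combined score over replicates was not deposited, so single values may mislead.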 Names joined by + are all predicted targets of the reagent. Not all columns of the deposit are shown.

Test: 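Fly genes whose silencing alters how much lipid cells keep in droplets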 (primary screen)
Cell system: Drosophila Kc167 embryonic cells
Knock-down reagent: long dsRNA against Drosophila genes, about 250 ng dsRNA per well
Time to read-out: 4 days
Conditions: cells fed 400 µM oleic acid bound to BSA
Detection: 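Microscope images give a droplet-to-nucleus area ratio, taken as log and converted to a screen-wide B-score; higher values mean greater lipid storage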
Direction: droplet/nuclear area B-score: higher = more stored lipid (overstorage)

Apl (Apollo) [SID104190142]
- droplet/nuclear area B-score, replicate 1: 2.54

Tektin-C (Tektin C) [SID104189533]
- droplet/nuclear area B-score, replicate 1: 2.76

bmm (brummer) [SID104190294]
- droplet/nuclear area B-score, replicate 1: 4.65

CG6753 [SID104195900]
- droplet/nuclear area B-score, replicate 1: -0.235

CG34342 [SID104189548]
- droplet/nuclear area B-score, replicate 1: -0.725

CG34342 [SID104201961]
- droplet/nuclear area B-score, replicate 1: -1.12

Ero1L (Endoplasmic reticulum oxidoreductin-1-like) [SID104188452]
- droplet/nuclear area B-score, replicate 1: -0.426

hubl (hug-bell) [SID104186617]
- droplet/nuclear area B-score, replicate 1: 0.427

Bicra [SID104194209]
- droplet/nuclear area B-score, replicate 1: -2.48

Cyt-b5 (Cytochrome b5) [SID104187184]
- droplet/nuclear area B-score, replicate 1: -0.0768

nrv2 (nervana 2) [SID104180740]
- droplet/nuclear area B-score, replicate 1: 0.701

nrv2 (nervana 2) [SID104183175]
- droplet/nuclear area B-score, replicate 1: -0.0275

CG30082 [SID104202302]
- droplet/nuclear area B-score, replicate 1: 0.291

Pbp95 (PSEA-binding protein 95kD) [SID104195240]
- droplet/nuclear area B-score, replicate 1: 0.37

CG11788 [SID104185876]
- droplet/nuclear area B-score, replicate 1: -0.00856

CG8366 [SID104186945]
- droplet/nuclear area B-score, replicate 1: -2.61

CG14085 [SID104189881]
- droplet/nuclear area B-score, replicate 1: 2.03

CG18131 [SID104180309]
- droplet/nuclear area B-score, replicate 1: 1.15

CG18131 [SID104202340]
- droplet/nuclear area B-score, replicate 1: -0.391

dl (dorsal) [SID104183312]
- droplet/nuclear area B-score, replicate 1: 0.235

dl (dorsal) [SID104183313]
- droplet/nuclear area B-score, replicate 1: 2.52

Ordered by “droplet/nuclear area B-score, replicate 1” (high to low): some entries from above
nrv2 (nervana 2) [SID104180740]
- droplet/nuclear area B-score, replicate 1: 0.701

nrv2 (nervana 2) [SID104183175]
- droplet/nuclear area B-score, replicate 1: -0.0275

Cyt-b5 (Cytochrome b5) [SID104187184]
- droplet/nuclear area B-score, replicate 1: -0.0768

The listing continues:
RpL22-like (Ribosomal protein L22-like) [SID104184374]
- droplet/nuclear area B-score, replicate 1: -0.361

CG15894 [SID104197890]
- droplet/nuclear area B-score, replicate 1: 0.996

CG15894 [SID104197891]
- droplet/nuclear area B-score, replicate 1: 2.78

Acbp3 (Acyl-CoA binding protein 3) [SID104190814]
- droplet/nuclear area B-score, replicate 1: 1.16

CG10073 [SID104185753]
- droplet/nuclear area B-score, replicate 1: 0.0481

CG17777 [SID104197929]
- droplet/nuclear area B-score, replicate 1: -2.06

p120ctn (p120 catenin) [SID104187545]
- droplet/nuclear area B-score, replicate 1: -1.16

CG14014 [SID104182137]
- droplet/nuclear area B-score, replicate 1: 1.1

prd (paired) [SID104183389]
- droplet/nuclear area B-score, replicate 1: 0.45

NijA (Ninjurin A) [SID104190429]
- droplet/nuclear area B-score, replicate 1: -0.428

CG31999 [SID104196923]
- droplet/nuclear area B-score, replicate 1: 0.187

CG31999 [SID104196925]
- droplet/nuclear area B-score, replicate 1: -1.59

Ube4A (Ubiquitination factor E4A) [SID104181796]
- droplet/nuclear area B-score, replicate 1: -0.275

CG4622 [SID104184271]
- droplet/nuclear area B-score, replicate 1: -0.444

BomS4 (Bomanin Short 4) [SID104201958]
- droplet/nuclear area B-score, replicate 1: -1.11

Achl (Achilles) [SID104186457]
- droplet/nuclear area B-score, replicate 1: -0.523

cpo (couch potato) [SID104193057]
- droplet/nuclear area B-score, replicate 1: 0.24

ldd (lipid droplet defective) [SID104200350]
- droplet/nuclear area B-score, replicate 1: 0.403

ldd (lipid droplet defective) [SID104202084]
- droplet/nuclear area B-score, replicate 1: 0.0111

lncRNA:CR42862 + CG33229 [SID104188289]
- droplet/nuclear area B-score, replicate 1: -0.259

CG3065 [SID104184125]
- droplet/nuclear area B-score, replicate 1: -1.74

CG42724 [SID104192359]
- droplet/nuclear area B-score, replicate 1: 0.793

CG42724 [SID104201795]
- droplet/nuclear area B-score, replicate 1: 3.15

WASp [SID104194824]
- droplet/nuclear area B-score, replicate 1: -0.854

CkIIalpha-i3 (CKII-alpha subunit interactor-3) [SID104188443]
- droplet/nuclear area B-score, replicate 1: -0.378

Osi7 (Osiris 7) [SID104191968]
- droplet/nuclear area B-score, replicate 1: 1.15

Cchl (Cytochrome c heme lyase) [SID104195741]
- droplet/nuclear area B-score, replicate 1: 0.0318

Mal-A7 (Maltase A7) [SID104185869]
- droplet/nuclear area B-score, replicate 1: 0.136

CG13561 [SID104183991]
- droplet/nuclear area B-score, replicate 1: -0.419

CG10470 [SID104181853]
- droplet/nuclear area B-score, replicate 1: 0.123
